In article PMC6785866:
No constants are given. Whether binding was seen depends on the method and setting. Binding seen in cells or lysates may run through a third protein. Some binding calls cover weakened binding; strength is not graded here.

Protein sequences, listed by entry. Tags and fused reporters are not part of them.
UniProt O02718: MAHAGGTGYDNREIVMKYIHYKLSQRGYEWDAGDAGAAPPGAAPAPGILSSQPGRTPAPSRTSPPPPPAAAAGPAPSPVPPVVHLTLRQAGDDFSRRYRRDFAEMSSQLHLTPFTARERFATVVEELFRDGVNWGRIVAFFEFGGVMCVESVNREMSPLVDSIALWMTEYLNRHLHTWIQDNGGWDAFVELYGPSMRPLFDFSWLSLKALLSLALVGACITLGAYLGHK
UniProt Q4A1L4: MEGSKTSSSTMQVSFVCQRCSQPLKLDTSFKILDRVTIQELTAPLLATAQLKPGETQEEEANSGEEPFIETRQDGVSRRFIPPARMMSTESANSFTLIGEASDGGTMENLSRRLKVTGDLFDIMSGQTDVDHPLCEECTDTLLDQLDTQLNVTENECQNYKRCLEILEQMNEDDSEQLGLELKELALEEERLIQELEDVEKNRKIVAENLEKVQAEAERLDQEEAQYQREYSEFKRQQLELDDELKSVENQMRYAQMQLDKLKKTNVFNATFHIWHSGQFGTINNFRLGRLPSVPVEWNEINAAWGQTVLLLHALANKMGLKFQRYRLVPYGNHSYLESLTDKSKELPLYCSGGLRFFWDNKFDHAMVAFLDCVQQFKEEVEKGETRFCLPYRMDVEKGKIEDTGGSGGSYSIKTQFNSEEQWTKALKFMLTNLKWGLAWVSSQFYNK

Biological target: Bcl-2 (bovine (endogenous in MDBK)) (UniProt O02718)
Test: co-IP; reciprocal immunoprecipitation of 500 ug extracted total cellular protein with Beclin 1 or Bcl-2 antibodies (Pierce Co-Immunoprecipitation Kit), Western blot for Beclin 1 and Bcl-2; cells uninfected or infected with BEFV (MOI 1, 6 h)

binding: binds
Substance: Beclin 1 (from UniProt Q4A1L4 1-448)
